Measurements taken from patent publication US20240294638A1.
Results are given in words; binding and its absence hold for the method and conditions named. Some binding calls cover weakened binding; strength is not graded here.

Key:
[1] = molecular target: T1, cynomolgus NKG2A and cynomolgus CD94 expressed on transiently transfected CHO-S cells (cynomolgus) (UniProt Q68VD2+Q68VD4); test: flow cytometry on transfected CHO-S cells
[2] = molecular target: T1, cynomolgus NKG2A and cynomolgus CD94 expressed on transiently transfected CHO-S cells (cynomolgus); test: blocking of PE-conjugated HLA-E pentamer binding to transiently transfected CHO-S cells, flow cytometry (percentage binding) [panel B cNKG2A]
[3] = molecular target: T1, cynomolgus NKG2A and cynomolgus CD94 expressed on transiently transfected CHO-S cells (cynomolgus); test: flow cytometry, transiently transfected CHO-S cells, AF647 goat anti-human IgG secondary (MFI) [panel 23686]

Measured: binding

B1: antibody 23686 (antibody, human IgG1, kappa, L234A L235A, V domains shown)
VH: EVQLVESGGGLVKPGGSLRLSCAASGFTFSSYSMNWVRQAPGKGLEWVSSISSSSSYIYYADSVKGRFTISRDNAKNSLYLQMNSLRAEDTAVYYCARDEWGLLGFDSWGQGTLVTVSS
VL: EIVLTQSPATLSLSPGERATLSCRASQSISNYLAWYQQKPGQAPRLLIYDASNRATGIPARFSGSGSGTDFTLTISSLEPEDFAVYYCQQRTDWPPWTFGQGTKVEIKR
binds: all assays above
